Laboratory results: patent US20020165140A1
These are yes or no findings as the source states them, for the method shown. For some of these results: Binding seen in cells or lysates may run through a third protein. Some entries that bind do so weakly or less than the wild type. For some of these results: Tags and fused reporters may be left off the sequences shown.

By UniProt entry, the sequences of proteins in these tests, tags left out. Where a name states a change or a piece, a line headed by the entry shows the natural chain unless it says otherwise.
UniProt Q16665: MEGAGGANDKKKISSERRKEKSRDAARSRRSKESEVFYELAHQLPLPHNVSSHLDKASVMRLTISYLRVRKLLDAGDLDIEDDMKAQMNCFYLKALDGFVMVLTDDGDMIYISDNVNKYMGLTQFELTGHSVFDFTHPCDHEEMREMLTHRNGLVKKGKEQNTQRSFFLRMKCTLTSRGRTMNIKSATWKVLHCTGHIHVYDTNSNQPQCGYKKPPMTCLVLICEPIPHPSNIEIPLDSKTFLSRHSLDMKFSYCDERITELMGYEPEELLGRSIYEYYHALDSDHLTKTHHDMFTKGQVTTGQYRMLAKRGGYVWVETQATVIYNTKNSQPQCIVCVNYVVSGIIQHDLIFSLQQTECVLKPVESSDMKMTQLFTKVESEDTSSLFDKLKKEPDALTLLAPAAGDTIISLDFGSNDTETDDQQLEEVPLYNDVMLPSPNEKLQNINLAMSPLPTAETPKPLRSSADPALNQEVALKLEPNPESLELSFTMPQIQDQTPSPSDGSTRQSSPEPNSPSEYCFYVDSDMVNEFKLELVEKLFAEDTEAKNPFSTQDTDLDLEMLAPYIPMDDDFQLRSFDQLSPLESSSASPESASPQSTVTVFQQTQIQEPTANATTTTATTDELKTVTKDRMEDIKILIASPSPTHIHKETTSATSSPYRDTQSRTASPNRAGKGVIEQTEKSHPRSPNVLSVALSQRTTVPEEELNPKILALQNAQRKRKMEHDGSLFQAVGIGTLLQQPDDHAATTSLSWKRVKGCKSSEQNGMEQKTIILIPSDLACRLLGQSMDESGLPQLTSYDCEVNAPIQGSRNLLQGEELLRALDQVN
UniProt P04386: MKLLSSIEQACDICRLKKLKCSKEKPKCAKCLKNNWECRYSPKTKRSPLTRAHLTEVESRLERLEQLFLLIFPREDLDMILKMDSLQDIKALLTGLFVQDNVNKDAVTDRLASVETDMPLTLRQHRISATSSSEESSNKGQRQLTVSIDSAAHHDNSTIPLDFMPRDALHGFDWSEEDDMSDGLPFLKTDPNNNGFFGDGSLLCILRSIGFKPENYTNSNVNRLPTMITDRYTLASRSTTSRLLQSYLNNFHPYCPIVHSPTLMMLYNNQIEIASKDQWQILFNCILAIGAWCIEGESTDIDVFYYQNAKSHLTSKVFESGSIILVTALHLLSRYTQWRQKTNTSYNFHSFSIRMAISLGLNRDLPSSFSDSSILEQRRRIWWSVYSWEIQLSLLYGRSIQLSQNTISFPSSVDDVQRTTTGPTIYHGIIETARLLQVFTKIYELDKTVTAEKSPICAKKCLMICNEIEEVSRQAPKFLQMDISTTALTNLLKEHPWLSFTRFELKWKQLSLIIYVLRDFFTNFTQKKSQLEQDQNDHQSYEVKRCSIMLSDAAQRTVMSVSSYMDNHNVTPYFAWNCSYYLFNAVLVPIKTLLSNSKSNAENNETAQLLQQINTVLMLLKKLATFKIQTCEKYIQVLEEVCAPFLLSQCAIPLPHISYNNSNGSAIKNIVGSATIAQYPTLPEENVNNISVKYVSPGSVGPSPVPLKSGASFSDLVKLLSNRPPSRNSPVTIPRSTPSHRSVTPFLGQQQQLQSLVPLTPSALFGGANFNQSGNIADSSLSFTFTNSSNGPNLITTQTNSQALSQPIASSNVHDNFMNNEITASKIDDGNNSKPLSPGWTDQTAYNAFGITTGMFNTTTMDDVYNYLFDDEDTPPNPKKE

Tests used:
[1] = target: hypoxia inducible factor-1α (HIF-1α), in vitro translated (UniProt Q16665); test: coimmunoprecipitation with anti-GST antibody, in vitro translated proteins, autoradiography
[2] = target: hypoxia inducible factor-1α (HIF-1α), in vitro translated (UniProt Q16665); test: coimmunoprecipitation with anti-GST antibody, in vitro translated proteins, autoradiography (FIG. 4a legend)
GAL4-HIF-1α/1-330 [3] = target: GAL4-HIF-1α/1-330 (UniProt P04386); test: mammalian two-hybrid assay in COS7 cells, GAL4-driven luciferase reporter
GAL4-HIF-1α/1-330 [4] = target: GAL4-HIF-1α/1-330 (UniProt P04386); test: mammalian two-hybrid assay in COS7 cells, GAL4-driven luciferase reporter (FIG. 4c legend)

B1: glutathione S-transferase- (GST-) IPAS fusion protein (protein, not shown: a dimerising Fc or GST)
chain: MALGLQRVRSNTELRKEKSRDAARSRRSQETEVLYQLAHTLPFARGVSAHLDKASIMRLTISYLRMHRLCAAGGKRGRATGRLLPEGPGGFRHGTHRRGRHGLPVGKCQQAPGPQSVDLCSSSLIHNPTPGTNFSLELIGHSIFDFIHPCDQEELQDALTPRPNLSKKKLEAPTERHFSLRMKSTLTSRGRTLNLKAATWKVLHCSGHMRAYKPPAQTSPAGSPRSEPPLQCLVLICEAIPQLPFHDGATLGLPQEKTPISTLFTPLWKALLCLVKRWPVQVLQGKGTESSLPSWVLWALNRKNCPG
For B1, the binding [1] was “binds” and the binding [2] was “binds”.

B2: VP16-IPAS (protein)
chain: B1 chain
B2 was tested, and the binding (GAL4-HIF-1α/1-330 [3]) was “binds” and the binding (GAL4-HIF-1α/1-330 [4]) was “binds”.
